PubChem BioAssay AID504808 | Drosophila RNAi Screening Center, 2011
Screen: 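Fly genes required to hold E2F transcription in check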 (primary screen). Cells: Drosophila S2 cells. Reagents: long dsRNA against Drosophila genes. Read-out: 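Dual luciferase plate measurements; E2F-specific signal taken as firefly over Renilla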. Reading the numbers: E2F firefly: higher = more E2F reporter activity; Renilla normaliser: higher = more normaliser reporter signal. Rule for the call: 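a knock-down counted as active when the firefly/Renilla E2F signal rose above 50%, a threshold chosen arbitrarily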.
The screen tested about 21,000 reagents; shown is a random part of those that have a named target and a result. Over the whole deposit, 18 (0.084%) were called active. 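Raw counts without plate normalisation, one of two replicates; the ratio scores behind the calls were not deposited.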 Not stated in the record: the amount of reagent, the time to read-out.

gene	DRSC id	E2F firefly, rep 1	Renilla normaliser, rep 1	Call
CG3491	DRSC01934	1.03e5	4426	inactive
CG31142	DRSC13647	84448	2723	inactive
CG6701	DRSC07007	3015	194	inactive
Vps29	DRSC00666	78655	3404	inactive
rdgB	DRSC20365	50245	3743	inactive
Ugt35C1	DRSC16080	89021	5901	inactive
CG13983	DRSC02315	1.54e5	5485	inactive
CG9231	DRSC11054	72290	3702	inactive
CG31869	DRSC02582	1.52e5	5304	inactive
CG31869	DRSC02674	1.51e5	5335	inactive
CG33919	DRSC04940	1.43e5	4997	inactive
CG31327	DRSC13019	86069	2344	inactive
CG34408	DRSC17733	8098	712	inactive
smo	DRSC00837	1.02e5	3998	inactive
CG1213	DRSC12191	1.34e5	6252	inactive
Boot	DRSC06412	1.47e5	5484	inactive
CG42369	DRSC03244	1.45e5	4770	inactive
CG17111	DRSC15174	1.11e5	6226	inactive
CG5506	DRSC10511	1.73e5	9527	inactive
NC2alpha	DRSC04059	88604	3309	inactive
O-fut2	DRSC18608	1969	916	inactive
FucTB	DRSC02745	1.39e5	5187	inactive
CG3119	DRSC00569	1.54e5	5261	inactive
eve	DRSC07614	1.39e5	5052	inactive
meng	DRSC02134	1.70e5	6077	inactive
eIF4E1	DRSC11342	1.12e5	205	inactive
Prosbeta4	DRSC02603	86163	4449	inactive
CG11710	DRSC20485	1.40e5	6050	inactive
Rrp1	DRSC00784	1.55e5	5215	inactive

The list goes on (6 carried over from the part before).
gene	DRSC id	E2F firefly, rep 1	Renilla normaliser, rep 1	Call
eve	DRSC07614	1.39e5	5052	inactive
meng	DRSC02134	1.70e5	6077	inactive
eIF4E1	DRSC11342	1.12e5	205	inactive
Prosbeta4	DRSC02603	86163	4449	inactive
CG11710	DRSC20485	1.40e5	6050	inactive
Rrp1	DRSC00784	1.55e5	5215	inactive
Cyp313a5	DRSC16628	1.60e5	6883	inactive
Pdxk	DRSC10419	1.10e5	5671	inactive
Acyp2	DRSC15336	1.19e5	5963	inactive
CheA46a	DRSC05184	1.33e5	5603	inactive
gfzf	DRSC12506	1.16e5	170	active
CG2887	DRSC18235	1.18e5	5504	inactive
CG8128	DRSC20084	8567	780	inactive
SA2	DRSC08385	1.04e5	4452	inactive
Klf15	DRSC17742	73934	4886	inactive
vari	DRSC03202	1.09e5	4482	inactive
CG31467	DRSC16048	1.37e5	6320	inactive
Srrm1	DRSC09835	1.18e5	7528	inactive
tun	DRSC05592	1.21e5	4427	inactive
tun	DRSC07127	84064	4052	inactive
ND4 (retired record)	DRSC21269	1.40e5	5088	inactive
nuf	DRSC11379	1.54e5	7421	inactive
CG17375	DRSC02614	1.45e5	4600	inactive
cbc	DRSC06957	2940	236	inactive
Jon65Aiv	DRSC10644	81791	3519	inactive
RunxA	DRSC20400	73502	2571	inactive
RunxA	DRSC20498	72269	5342	inactive
RunxA	DRSC20524	1.42e5	8029	inactive
CAH2	DRSC10746	1.26e5	6876	inactive
CG11912	DRSC00332	85563	3389	inactive
Ptp52F	DRSC06717	1.52e5	4553	inactive
Alg9	DRSC14407	65950	3271	inactive
CG7059	DRSC16187	1.60e5	7207	inactive
Ipo9	DRSC16813	1.58e5	7225	inactive
